Results are given in words; binding and its absence hold for the method and conditions named. Binding seen in cells or lysates may run through a third protein. Some binding calls cover weakened binding; strength is not graded here.
Assays:
[1] = target: RFP-tagged wild-type STAT5A (RFP-wtSTAT5A) (UniProt P42229); assay: co-IP; HEK 293T cells transfected with RFP-tagged wtSTAT5A or STAT5AY694F; RIPA lysate with 2 mg total protein precipitated overnight at 4 °C with mouse monoclonal anti-P-STAT5 (1:100) or rabbit monoclonal anti-T-STAT5 (1:50), protein G sepharose; endogenous NPM1 detected with mouse monoclonal anti-NPM1; IgG controls
[2] = target: RFP-tagged STAT5A Y694F mutant (RFP-STAT5AY694F) (UniProt P42229); assay: as above

Protein sequences, listed by entry. Tags and fused reporters are not part of them. Lines headed by an entry give the natural chain unless they say otherwise; changes in a name come on top.
UniProt P42229: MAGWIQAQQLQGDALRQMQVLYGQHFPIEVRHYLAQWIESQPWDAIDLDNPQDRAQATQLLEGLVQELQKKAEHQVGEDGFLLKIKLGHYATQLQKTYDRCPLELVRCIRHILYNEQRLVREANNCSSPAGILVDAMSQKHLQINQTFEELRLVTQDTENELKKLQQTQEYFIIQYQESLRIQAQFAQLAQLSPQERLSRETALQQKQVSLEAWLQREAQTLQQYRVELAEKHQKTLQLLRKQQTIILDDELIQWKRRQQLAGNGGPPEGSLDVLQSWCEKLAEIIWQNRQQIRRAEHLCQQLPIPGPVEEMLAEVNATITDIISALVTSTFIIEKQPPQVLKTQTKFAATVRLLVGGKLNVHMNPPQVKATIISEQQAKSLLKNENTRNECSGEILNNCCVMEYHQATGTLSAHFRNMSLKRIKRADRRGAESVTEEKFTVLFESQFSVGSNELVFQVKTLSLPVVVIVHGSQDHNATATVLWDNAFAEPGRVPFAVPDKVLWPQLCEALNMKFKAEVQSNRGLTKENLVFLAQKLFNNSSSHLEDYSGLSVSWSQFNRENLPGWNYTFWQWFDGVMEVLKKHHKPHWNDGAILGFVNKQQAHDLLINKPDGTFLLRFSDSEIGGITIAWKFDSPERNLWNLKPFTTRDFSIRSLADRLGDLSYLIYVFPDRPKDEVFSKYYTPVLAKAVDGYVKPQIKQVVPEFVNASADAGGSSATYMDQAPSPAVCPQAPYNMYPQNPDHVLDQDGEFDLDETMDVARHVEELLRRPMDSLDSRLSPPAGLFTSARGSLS
UniProt P06748: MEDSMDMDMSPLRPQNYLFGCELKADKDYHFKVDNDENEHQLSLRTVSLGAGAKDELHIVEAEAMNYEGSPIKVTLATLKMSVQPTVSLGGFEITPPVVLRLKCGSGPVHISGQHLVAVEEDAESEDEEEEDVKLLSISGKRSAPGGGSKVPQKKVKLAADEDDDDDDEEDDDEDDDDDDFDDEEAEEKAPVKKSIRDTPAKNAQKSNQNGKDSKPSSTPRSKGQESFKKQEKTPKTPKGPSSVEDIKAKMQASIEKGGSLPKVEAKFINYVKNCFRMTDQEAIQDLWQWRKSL

Question: For “Nucleophosmin (NPM1), endogenous in HEK 293T cells (from UniProt P06748 1-294)”, which binding [1] is on record?
Answer: binds

Question: What about the binding [2] of the same substance?
Answer: binds

— PMC5260985
